# This continues a long series; more values of the same kind are listed elsewhere.
# System: RNA isoforms in PNN 1-46 SMA type I patient-derived fibroblasts
# Assay: RNA Abundance Modulation (RNA isoform abundance, iFPM, HiSeq RNA sequencing)
# Assay type: cell-based, human
# Conditions: 3 μM
# Protocol: Cells from a cell line of interest are cultured in conditions sufficient to yield the number of cells capable of generating enough RNA for subsequent sequencing steps. Cells from the tested cell line are contacted with a compound described herein.
# To culture said cells, they are seeded, at appropriate concentrations in a volume of media in a cell culture container and incubated for 4, 5, 6, 7, 8, 9, 10, or more hours. A concentrated solution of compound in a vehicle (e.g., DMSO) is then added in sufficient volume to result in the intended final concentration of the compound, for example 100 nM, 500 nM, 1 μM, 5 μM, 10 μM, 15 μM, 20 μM, or more. The cells may also be treated with vehicle alone, as a control. A number of replicates of each concentration or control may be made (e.g., 2 replicates). The cells are then incubated at a constant temperature appropriate for cell culture of the particular cell line (e.g., 37° C.) for 6, 12, 18, 24, 48, or more hours. After incubation, the growth medium is removed and the cells are washed with the appropriate buffer (e.g., PBS). Cells are then removed from adherence to the cell culture container by treatment with a solution containing trypsin, and the trypsin subsequently quenched with the appropriate volume of buffer (e.g., DMEM-FBS). The cells are then pelleted with gentle centrifugation (e.g., ≤90×g centrifugal force) and resuspended in a buffer to lyse the cells for extraction of RNA. The cell lysates may then be frozen (e.g., at −80° C.) or, alternately, may immediately be used in a procedure to purify the RNA (e.g. by use of the RNEASY PLUS® minikit). The RNA from cell lysates is eluted in the appropriate volume of buffer (e.g., RNEASE-FREE H2O®). The resulting purified RNA may then be sequenced (e.g., using RNASeq) or analyzed using a human exon array (e.g., by GENECHIP® human exon array) to determine changes in the RNA levels in those cells treated with compound compared to those cells treated only with DMSO. The purified RNA may also be quantified by other methods known in the art.
# Using the RNA data obtained from sequencing, exon array, or other methods, a statistical analysis can reveal changes in the RNA levels of compound-treated compared with control. For example, t-test p-values may be calculated for the data obtained through sequencing and exon array methods in order to compare compound-treated cells to those treated with the DMSO control. […] Analysis of the sequencing and exon array data may then also yield predictions about the cause of the aberrant amount of an RNA transcript in the cells (e.g., perturbation of RNA splicing, RNA transcription, or RNA stability). These predictions may be further confirmed by methods known in the art. For example, RT-PCR and RT-qPCR may be used to confirm the change in amount of RNA transcripts for one or more particular transcripts of interest.
# Following the methods described above in Example 1, PNN 1-46 SMA type I patient-derived fibroblasts were treated with 300 nM or 3 μM Compounds 774 and 808 in 0.5% DMSO.
# 700,000 cells were seeded in 10 mL of medium (DMEM plus 10% FBS) in a T-75 flask. Cells were allowed to attach for at least 4 hrs, after which 50 μL of a 200× compound solution (100% DMSO) was added to each well, and the plate was incubated at 37° C. for 24 hrs.
# At the end of the incubation period, the supernatant was removed and the cells where washed with PBS. TrypLE (Invitrogen) express solution was added (e.g. 1.5 mL per one T75 flask). The flasks were incubated for 3 to 5 min at 37° C. The trypsin was then quenched, e.g., by adding 10 mL DMEM-FBS.
# Next, the cells were pelleted using gentle centrifugation without exceeding 90×g centrifugal force. The supernatant was removed and the cell pellet was re-suspended in 600 μL RLT buffer (the RLT buffer was supplemented with beta-mercaptoethanol according to the RNeasy protocol manual) by pipetting up and down until the pellet was completely dissolved […]
structure (smiles),measurement,setting,value
CCc1nc(C)cn2nc(-c3cc(=O)n4cc(C5CCN(C)CC5)cc(C)c4n3)cc12 [Compound 774],FC (x + 1),FAF1 AK293659,0.7848
same,L2FC (x + 1),FAF1 AK293659,−0.350
same,L2abs (Cpd-DMSO),FAF1 AK293659,1.43
same,abs (Cpd-DMSO),FAF1 AK293659,3 iFPM
same,amp FC (x + 1),FAF1 AK293659,1.27
same,ave Cpd,FAF1 AK293659,9 iFPM
same,FC (x + 1),FAF1 NM_007051,0.2556
same,L2FC (x + 1),FAF1 NM_007051,−1.968
same,L2abs (Cpd-DMSO),FAF1 NM_007051,10.32
same,abs (Cpd-DMSO),FAF1 NM_007051,1281 iFPM
same,amp FC (x + 1),FAF1 NM_007051,3.91
same,ave Cpd,FAF1 NM_007051,439 iFPM
same,FC (x + 1),FAM198B AK172805,0.8219
same,L2FC (x + 1),FAM198B AK172805,−0.283
same,L2abs (Cpd-DMSO),FAM198B AK172805,−1.48
same,abs (Cpd-DMSO),FAM198B AK172805,0 iFPM
same,amp FC (x + 1),FAM198B AK172805,1.22
same,ave Cpd,FAM198B AK172805,1 iFPM
same,FC (x + 1),FAM198B NM016613,0.7385
same,L2FC (x + 1),FAM198B NM016613,−0.437
same,L2abs (Cpd-DMSO),FAM198B NM016613,6.42
same,abs (Cpd-DMSO),FAM198B NM016613,85 iFPM
same,amp FC (x + 1),FAM198B NM016613,1.35
same,ave Cpd,FAM198B NM016613,240 iFPM
same,FC (x + 1),FAM198B NM_001031700,4.5905
same,L2FC (x + 1),FAM198B NM_001031700,2.199
same,L2abs (Cpd-DMSO),FAM198B NM_001031700,1.84
same,abs (Cpd-DMSO),FAM198B NM_001031700,4 iFPM
same,amp FC (x + 1),FAM198B NM_001031700,4.59
same,ave Cpd,FAM198B NM_001031700,4 iFPM
same,FC (x + 1),FAM198B NM_001128424,0.0125
same,L2FC (x + 1),FAM198B NM_001128424,−6.324
same,L2abs (Cpd-DMSO),FAM198B NM_001128424,6.31
same,abs (Cpd-DMSO),FAM198B NM_001128424,79 iFPM
same,amp FC (x + 1),FAM198B NM_001128424,80.12
same,ave Cpd,FAM198B NM_001128424,0 iFPM
same,FC (x + 1),FAM219B BC006348,2.6547
same,L2FC (x + 1),FAM219B BC006348,1.409
same,L2abs (Cpd-DMSO),FAM219B BC006348,7.57
same,abs (Cpd-DMSO),FAM219B BC006348,191 iFPM
same,amp FC (x + 1),FAM219B BC006348,2.65
same,ave Cpd,FAM219B BC006348,305 iFPM
same,FC (x + 1),FAM219B BC064575,0.4302
same,L2FC (x + 1),FAM219B BC064575,−1.217
same,L2abs (Cpd-DMSO),FAM219B BC064575,5.27
same,abs (Cpd-DMSO),FAM219B BC064575,39 iFPM
same,amp FC (x + 1),FAM219B BC064575,2.32
same,ave Cpd,FAM219B BC064575,28 iFPM
same,FC (x + 1),FAM219B NM_020447,0.8639
same,L2FC (x + 1),FAM219B NM_020447,−0.211
same,L2abs (Cpd-DMSO),FAM219B NM_020447,6.23
same,abs (Cpd-DMSO),FAM219B NM_020447,75 iFPM
same,amp FC (x + 1),FAM219B NM_020447,1.16
same,ave Cpd,FAM219B NM_020447,475 iFPM
same,FC (x + 1),FBXO9 NM_012347,0.5321
same,L2FC (x + 1),FBXO9 NM_012347,−0.910
same,L2abs (Cpd-DMSO),FBXO9 NM_012347,3.35
same,abs (Cpd-DMSO),FBXO9 NM_012347,10 iFPM
same,amp FC (x + 1),FBXO9 NM_012347,1.88
same,ave Cpd,FBXO9 NM_012347,11 iFPM
same,FC (x + 1),FBXO9 NM_033480,0.4922
same,L2FC (x + 1),FBXO9 NM_033480,−1.023
same,L2abs (Cpd-DMSO),FBXO9 NM_033480,9.09
same,abs (Cpd-DMSO),FBXO9 NM_033480,545 iFPM
same,amp FC (x + 1),FBXO9 NM_033480,2.03
same,ave Cpd,FBXO9 NM_033480,527 iFPM
same,FC (x + 1),FBXO9 NM_033481,0.2022
same,L2FC (x + 1),FBXO9 NM_033481,−2.306
same,L2abs (Cpd-DMSO),FBXO9 NM_033481,4.83
same,abs (Cpd-DMSO),FBXO9 NM_033481,28 iFPM
same,amp FC (x + 1),FBXO9 NM_033481,4.94
same,ave Cpd,FBXO9 NM_033481,6 iFPM
same,FC (x + 1),FBXO10 BC125124,15.6883
same,L2FC (x + 1),FBXO10 BC125124,3.972
same,L2abs (Cpd-DMSO),FBXO10 BC125124,3.88
same,abs (Cpd-DMSO),FBXO10 BC125124,15 iFPM
same,amp FC (x + 1),FBXO10 BC125124,15.69
same,ave Cpd,FBXO10 BC125124,15 iFPM
same,FC (x + 1),FBXO10 BC125125,5.9612
same,L2FC (x + 1),FBXO10 BC125125,2.576
same,L2abs (Cpd-DMSO),FBXO10 BC125125,8.01
same,abs (Cpd-DMSO),FBXO10 BC125125,258 iFPM
same,amp FC (x + 1),FBXO10 BC125125,5.96
same,ave Cpd,FBXO10 BC125125,309 iFPM
same,FC (x + 1),FBXO10 NM_012166,1.0172
same,L2FC (x + 1),FBXO10 NM_012166,0.025
same,L2abs (Cpd-DMSO),FBXO10 NM_012166,2.21
same,abs (Cpd-DMSO),FBXO10 NM_012166,5 iFPM
same,amp FC (x + 1),FBXO10 NM_012166,1.02
same,ave Cpd,FBXO10 NM_012166,272 iFPM
same,FC (x + 1),FDFT1 AK057726,1.3413
same,L2FC (x + 1),FDFT1 AK057726,0.424
same,L2abs (Cpd-DMSO),FDFT1 AK057726,1.32
same,abs (Cpd-DMSO),FDFT1 AK057726,2 iFPM
same,amp FC (x + 1),FDFT1 AK057726,1.34
same,ave Cpd,FDFT1 AK057726,9 iFPM
same,FC (x + 1),FDFT1 AK296043,21.2109
same,L2FC (x + 1),FDFT1 AK296043,4.407
same,L2abs (Cpd-DMSO),FDFT1 AK296043,4.34
same,abs (Cpd-DMSO),FDFT1 AK296043,20 iFPM
same,amp FC (x + 1),FDFT1 AK296043,21.21
same,ave Cpd,FDFT1 AK296043,20 iFPM
same,FC (x + 1),FDFT1 AK297868,1.7107
same,L2FC (x + 1),FDFT1 AK297868,0.775
same,L2abs (Cpd-DMSO),FDFT1 AK297868,6.24
same,abs (Cpd-DMSO),FDFT1 AK297868,76 iFPM
same,amp FC (x + 1),FDFT1 AK297868,1.71
same,ave Cpd,FDFT1 AK297868,181 iFPM
same,FC (x + 1),FDFT1 AK300059,0.3881
same,L2FC (x + 1),FDFT1 AK300059,−1.365
same,L2abs (Cpd-DMSO),FDFT1 AK300059,0.66
same,abs (Cpd-DMSO),FDFT1 AK300059,2 iFPM
same,amp FC (x + 1),FDFT1 AK300059,2.58
same,ave Cpd,FDFT1 AK300059,0 iFPM
same,FC (x + 1),FDFT1 AK300245,3.8106
same,L2FC (x + 1),FDFT1 AK300245,1.930
same,L2abs (Cpd-DMSO),FDFT1 AK300245,4.22
same,abs (Cpd-DMSO),FDFT1 AK300245,19 iFPM
same,amp FC (x + 1),FDFT1 AK300245,3.81
same,ave Cpd,FDFT1 AK300245,24 iFPM
same,FC (x + 1),FDFT1 AK301617,5.4553
same,L2FC (x + 1),FDFT1 AK301617,2.448
same,L2abs (Cpd-DMSO),FDFT1 AK301617,2.55

# From patent US10688099B2, “Methods for modulating the amount of RNA transcripts” (PTC Therapeutics, Inc., priority 2013, dated 2020)
